From PMC6158461

Chains of the proteins cited; added tags and fusions are not shown. Lines headed by an entry give the natural chain unless they say otherwise; changes in a name come on top.
UniProt Q9HYR1: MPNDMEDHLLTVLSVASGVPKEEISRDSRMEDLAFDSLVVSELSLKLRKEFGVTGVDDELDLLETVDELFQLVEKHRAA
UniProt O54439: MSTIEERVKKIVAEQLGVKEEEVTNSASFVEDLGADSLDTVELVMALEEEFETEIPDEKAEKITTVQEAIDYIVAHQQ

T1: Acp1 with C-terminal SPA tag (strain CW22) (P. aeruginosa) (UniProt O52658)
T1 sequence: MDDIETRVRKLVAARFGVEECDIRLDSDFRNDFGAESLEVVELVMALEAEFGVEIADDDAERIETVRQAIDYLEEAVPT


Legend:
Test in all cases: affinity purification with mass spectrometry; tandem (sequential peptide) affinity purification of chromosomally SPA-tagged ACPs from stationary-phase PAO1 lysates: anti-FLAG M2 magnetic beads, 0.1% Triton X-100, TEV cleavage, calmodulin Sepharose, 4°C; untagged PAO1 as control; only proteins identified in both of two experiments reported
[1] = target: Acp3 with C-terminal SPA tag (strain CW21) (P. aeruginosa) (UniProt Q9HYR1)
[2] = target: AcpP with C-terminal SPA tag (strain CW20) (P. aeruginosa) (UniProt O54439)
[3] = target: T1, Acp1 with C-terminal SPA tag (strain CW22) (P. aeruginosa)

Row | Binder | binding [1] | binding [2] | binding [3]
1 | FabG, 3-oxo-acyl-ACP reductase (enzyme, UniProt O54438 1-247) MSLQGKVALVTGASRGIGQAIALELGRLGAVVIGTATSASGAEKIAETLKANGVEGAGLVLDVSSDESVAATLEHIQQHLGQPLIVVNNAGITRDNLLVRMKDDEWFDVVNTNLNSLYRLSKAVLRGMTKARWGRIINIGSVVGAMGNAGQTNYAAAKAGLEGFTRALAREVGSRAITVNAVAPGFIDTDMTRELPEAQREALLGQIPLGRLGQAEEIAKVVGFLASDGAAYVTGATVPVNGGMYMS | binds | binds | binds
2 | PepA, cytosol aminopeptidase (enzyme, UniProt O68822 1-495) MEFLVKSVRPETLKTATLVLAVGEGRKLGASAKAVDDATGGAISAVLKRGDLAGKVGQTLLLQSLPNLKAERVLLVGAGKERELGDRQYRKLASAVLSTLKGLAGADAALALGDLAVKGRDAHAKARLLVETLADGLYVFDRYKSQKAEPLKLKKLTLLADKADSAAVEQGSKEAQAIANGMALTRDLGNLPPNVCHPTFLGEQAKGLAKEFKGLKVEVLDEKKLRELGMGSFLAVAQGSDQPPRLIVLQYNGAKKDQAPHVLVGKGITFDTGGISLKPGLGMDEMKFDMCGAASVFGTFRAVLELQLPINLVGLLACAENMPSGGATRPGDIVTTMSGQTVEILNTDAEGRLVLCDALTYAERFKPQSVIDIATLTGACIVALGSNTSGLMGNNEALVRQLLKAGEFADDRAWQLPLFDEYQEQLDSPFADIANIGGPKAGTITAGCFLSRFAKKYHWAHLDIAGTAWISGGKDKGATGRPVPLLTQYLLERAK | – | – | binds
3 | GlpR, glycerol-3-phosphate regulon repressor (protein, UniProt Q51391 1-251) MNLPPRQQSIIEEVRERGYLSIEEMAQMFAVTPQTIRRDINQLAEQGLLRRYHGGAAYDSSIENTAYTMRADQMRDEKQRIAEAVASLVPDNASLFINIGTTTEAIARALLNHRNLKIITNNLHVAATLSAKEDFEVLVAGGTVRSDGGIVGQAAVDFIQQFRVDFALVGISGIDEDGSLLDFDYQEVRVSQAIIDNARQVFLAADSSKFGRNAVVRLGPISLVNRVISDSPPPAAIARLMAQHKVHLDLV | – | – | binds

These are yes or no findings as the source states them, for the method shown. Binding seen in cells or lysates may run through a third protein. A yes stands for co-enrichment or nearness to the bait. Other partners may have been found. For some assays here: Where a sequence is shown, tags or fusion partners need not be part of it.
